In patent US20040219555:
At least one result comes from cells or an extract, where the contact may be indirect. For some assays here: Negatives hold for the conditions tested. For some assays here: Tags and fusion partners may be left off the protein sequences shown.

Chains of the proteins cited; added tags and fusions are not shown. Chains listed by the source or under a name are the forms on record and can include a tag or linker.
NF-kB p50-p65 heterodimer (Homo sapiens), one chain, as listed by the source: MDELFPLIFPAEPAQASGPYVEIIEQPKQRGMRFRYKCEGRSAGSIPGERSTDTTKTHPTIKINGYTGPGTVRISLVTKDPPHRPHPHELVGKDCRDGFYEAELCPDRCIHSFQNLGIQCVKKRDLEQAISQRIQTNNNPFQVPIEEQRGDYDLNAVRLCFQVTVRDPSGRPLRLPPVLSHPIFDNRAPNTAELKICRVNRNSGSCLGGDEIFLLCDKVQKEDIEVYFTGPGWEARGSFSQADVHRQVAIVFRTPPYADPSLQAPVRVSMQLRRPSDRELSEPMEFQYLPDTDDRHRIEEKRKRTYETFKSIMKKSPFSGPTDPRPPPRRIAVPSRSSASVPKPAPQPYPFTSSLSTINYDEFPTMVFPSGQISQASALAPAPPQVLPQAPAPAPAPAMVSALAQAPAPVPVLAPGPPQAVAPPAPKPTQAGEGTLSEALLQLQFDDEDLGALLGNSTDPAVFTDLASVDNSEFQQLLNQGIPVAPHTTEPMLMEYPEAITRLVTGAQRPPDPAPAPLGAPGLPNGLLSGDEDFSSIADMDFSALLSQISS

Legend:
[1] = target: T1, NF-kB p50-p50 homodimer (Homo sapiens) (UniProt P19838); assay: EMSA; details: LPS-inducible complex, protein in an extract, label: 32P
T1 sequence (looked up, limits assumed): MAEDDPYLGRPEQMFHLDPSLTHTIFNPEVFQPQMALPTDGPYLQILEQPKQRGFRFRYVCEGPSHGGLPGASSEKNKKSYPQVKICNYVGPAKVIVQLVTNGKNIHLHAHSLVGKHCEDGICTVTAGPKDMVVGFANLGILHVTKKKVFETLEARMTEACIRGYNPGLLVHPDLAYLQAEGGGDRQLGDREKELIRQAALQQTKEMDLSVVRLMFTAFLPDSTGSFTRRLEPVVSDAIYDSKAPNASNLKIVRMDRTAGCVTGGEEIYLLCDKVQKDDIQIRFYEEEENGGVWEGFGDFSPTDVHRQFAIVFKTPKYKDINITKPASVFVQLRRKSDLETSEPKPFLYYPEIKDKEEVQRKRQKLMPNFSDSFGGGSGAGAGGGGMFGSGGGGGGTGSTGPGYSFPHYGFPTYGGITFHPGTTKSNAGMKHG

[2] = target: T2, OCT1 (POU2F1) (Homo sapiens) (UniProt P14859); assay: EMSA; details: protein in an extract, protein details: endogenous, MonoMac6 nuclear extract, label: 32P
T2 sequence (looked up, limits assumed): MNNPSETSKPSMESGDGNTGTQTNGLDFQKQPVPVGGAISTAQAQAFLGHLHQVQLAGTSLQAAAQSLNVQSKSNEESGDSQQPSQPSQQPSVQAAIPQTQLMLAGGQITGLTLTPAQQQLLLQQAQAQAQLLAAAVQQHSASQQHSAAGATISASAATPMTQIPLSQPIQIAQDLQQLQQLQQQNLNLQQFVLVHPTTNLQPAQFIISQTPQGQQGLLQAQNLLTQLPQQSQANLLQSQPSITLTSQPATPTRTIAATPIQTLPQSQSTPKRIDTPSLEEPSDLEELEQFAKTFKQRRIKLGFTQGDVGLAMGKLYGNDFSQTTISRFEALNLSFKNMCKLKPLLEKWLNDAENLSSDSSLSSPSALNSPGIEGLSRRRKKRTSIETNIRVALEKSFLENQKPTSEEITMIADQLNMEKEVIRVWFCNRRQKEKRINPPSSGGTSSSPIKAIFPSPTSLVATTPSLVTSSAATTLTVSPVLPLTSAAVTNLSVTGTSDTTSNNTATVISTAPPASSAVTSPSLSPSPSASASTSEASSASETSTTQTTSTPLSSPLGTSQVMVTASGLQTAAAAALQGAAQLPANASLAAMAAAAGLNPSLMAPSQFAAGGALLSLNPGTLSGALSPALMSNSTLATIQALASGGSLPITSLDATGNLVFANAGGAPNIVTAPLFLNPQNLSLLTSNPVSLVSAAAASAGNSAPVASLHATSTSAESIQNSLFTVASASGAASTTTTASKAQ

[3] = system: NF-kB p50-p65 heterodimer (Homo sapiens); assay: EMSA; details: LPS-inducible complex, protein in an extract, label: 32P
[4] = target: T2, OCT1 (POU2F1) (Homo sapiens); assay: competition with a labelled probe; details: 10x excess cold duplex abolishes OCT1 complex on -879/-845 probe; protein in an extract; protein details: endogenous, MonoMac6 nuclear extract
[5] = [none], letters built from the parent sequence and the stated change, variant of TNF -879/-845 857C

## AGCTGAGTATGGGGACCCCCCCTTAACGAAGACAGGGCC (double strand) [TNF -879/-845 857C]
[1]
  binding result: binds
[2]; high molecular weight complex absent
  binding result: no binding
[3]
  binding result: binds

## AGCTCCCTTAATGCAAATAGG / AGCTCCTATTTGCATTAAGGG [OCT1 consensus competitor]
[4]
  binding result: binds

## AGCTCCCTTAACGAAGACAGGGCC (double strand) [TNF -864/-845 857C]
[2]; lanes 9, 10, variant of TNF -879/-845 857C
  binding result: no binding

## GAGTATGGGGACCCCCCCTTAA (double strand) [TNF -879/-858 (kB1)]
[1]; [5]
  binding result: binds
[2]; [none], only NF-kB complexes described with this probe, 10x-100x NF-kB site (kB1) competitor had no effect on OCT1 complex, letters built from the parent sequence and the stated change, variant of TNF -879/-845 857C
  binding result: no binding
[3]; [5]
  binding result: binds
